Test results reported in PMC8242032, “Non-canonical function of DGCR8 in DNA double-strand break repair signaling and tumor radioresistance” (Nature Communications, 2021).
No constants are given. Whether binding was seen depends on the method and setting. In cells and extracts the contact can be indirect. Some entries that bind do so weakly or less than the wild type. Tags and fused reporters may be left off the sequences shown.

The chains behind the UniProt entries cited, without tags or fusion partners.
UniProt Q14694: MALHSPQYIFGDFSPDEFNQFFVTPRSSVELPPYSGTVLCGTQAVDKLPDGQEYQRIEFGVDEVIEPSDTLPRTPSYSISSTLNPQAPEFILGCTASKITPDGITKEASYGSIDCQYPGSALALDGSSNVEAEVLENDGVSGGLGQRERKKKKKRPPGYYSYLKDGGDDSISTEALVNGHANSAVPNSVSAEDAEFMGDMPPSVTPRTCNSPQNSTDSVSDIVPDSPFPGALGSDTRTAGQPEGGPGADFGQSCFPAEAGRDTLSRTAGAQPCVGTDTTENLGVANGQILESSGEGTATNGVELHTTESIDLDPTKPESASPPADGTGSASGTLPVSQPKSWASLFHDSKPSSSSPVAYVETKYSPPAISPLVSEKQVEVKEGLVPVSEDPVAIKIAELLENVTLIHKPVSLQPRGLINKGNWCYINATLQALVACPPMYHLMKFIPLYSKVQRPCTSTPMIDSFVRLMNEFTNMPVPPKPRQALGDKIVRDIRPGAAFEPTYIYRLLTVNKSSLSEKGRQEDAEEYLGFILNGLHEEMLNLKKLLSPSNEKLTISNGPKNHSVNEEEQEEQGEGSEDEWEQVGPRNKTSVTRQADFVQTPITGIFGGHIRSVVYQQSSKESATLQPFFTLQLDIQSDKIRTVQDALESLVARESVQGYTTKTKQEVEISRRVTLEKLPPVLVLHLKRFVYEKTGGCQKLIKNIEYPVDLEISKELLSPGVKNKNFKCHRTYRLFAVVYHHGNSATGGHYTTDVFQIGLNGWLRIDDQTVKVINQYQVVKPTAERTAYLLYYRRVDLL

Columns and labels:
Test in all cases: pull-down; SFB-tagged DUBs individually co-transfected with MYC-DGCR8 into HEK293T cells; pulldown with S-protein beads, 4 °C, 2 h; immunoblotting for FLAG and MYC; screen and confirmatory pulldown
[1] = biological target: T1, SFB-USP51 (human) (UniProt Q70EK9)
T1 sequence: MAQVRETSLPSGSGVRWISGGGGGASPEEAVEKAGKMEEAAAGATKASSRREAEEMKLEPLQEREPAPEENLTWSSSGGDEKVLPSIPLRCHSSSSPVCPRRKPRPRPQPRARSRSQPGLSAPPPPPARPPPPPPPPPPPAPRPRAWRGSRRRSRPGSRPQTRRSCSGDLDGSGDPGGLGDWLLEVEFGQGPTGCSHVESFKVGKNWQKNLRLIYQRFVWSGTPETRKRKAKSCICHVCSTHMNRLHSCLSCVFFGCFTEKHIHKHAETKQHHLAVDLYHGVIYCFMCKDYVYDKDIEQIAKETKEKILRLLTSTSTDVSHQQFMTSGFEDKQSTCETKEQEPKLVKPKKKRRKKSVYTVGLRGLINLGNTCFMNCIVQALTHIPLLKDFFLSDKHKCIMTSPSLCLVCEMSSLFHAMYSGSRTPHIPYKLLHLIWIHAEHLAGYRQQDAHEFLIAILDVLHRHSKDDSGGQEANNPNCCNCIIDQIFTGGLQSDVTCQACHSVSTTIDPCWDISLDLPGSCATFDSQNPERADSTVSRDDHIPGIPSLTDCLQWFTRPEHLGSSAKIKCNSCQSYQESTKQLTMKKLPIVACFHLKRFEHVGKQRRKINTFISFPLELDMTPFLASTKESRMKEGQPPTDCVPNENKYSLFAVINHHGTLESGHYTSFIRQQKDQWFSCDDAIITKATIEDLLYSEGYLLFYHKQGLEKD

[2] = biological target: T2, SFB-USP36 (human) (UniProt Q9P275)
T2 sequence: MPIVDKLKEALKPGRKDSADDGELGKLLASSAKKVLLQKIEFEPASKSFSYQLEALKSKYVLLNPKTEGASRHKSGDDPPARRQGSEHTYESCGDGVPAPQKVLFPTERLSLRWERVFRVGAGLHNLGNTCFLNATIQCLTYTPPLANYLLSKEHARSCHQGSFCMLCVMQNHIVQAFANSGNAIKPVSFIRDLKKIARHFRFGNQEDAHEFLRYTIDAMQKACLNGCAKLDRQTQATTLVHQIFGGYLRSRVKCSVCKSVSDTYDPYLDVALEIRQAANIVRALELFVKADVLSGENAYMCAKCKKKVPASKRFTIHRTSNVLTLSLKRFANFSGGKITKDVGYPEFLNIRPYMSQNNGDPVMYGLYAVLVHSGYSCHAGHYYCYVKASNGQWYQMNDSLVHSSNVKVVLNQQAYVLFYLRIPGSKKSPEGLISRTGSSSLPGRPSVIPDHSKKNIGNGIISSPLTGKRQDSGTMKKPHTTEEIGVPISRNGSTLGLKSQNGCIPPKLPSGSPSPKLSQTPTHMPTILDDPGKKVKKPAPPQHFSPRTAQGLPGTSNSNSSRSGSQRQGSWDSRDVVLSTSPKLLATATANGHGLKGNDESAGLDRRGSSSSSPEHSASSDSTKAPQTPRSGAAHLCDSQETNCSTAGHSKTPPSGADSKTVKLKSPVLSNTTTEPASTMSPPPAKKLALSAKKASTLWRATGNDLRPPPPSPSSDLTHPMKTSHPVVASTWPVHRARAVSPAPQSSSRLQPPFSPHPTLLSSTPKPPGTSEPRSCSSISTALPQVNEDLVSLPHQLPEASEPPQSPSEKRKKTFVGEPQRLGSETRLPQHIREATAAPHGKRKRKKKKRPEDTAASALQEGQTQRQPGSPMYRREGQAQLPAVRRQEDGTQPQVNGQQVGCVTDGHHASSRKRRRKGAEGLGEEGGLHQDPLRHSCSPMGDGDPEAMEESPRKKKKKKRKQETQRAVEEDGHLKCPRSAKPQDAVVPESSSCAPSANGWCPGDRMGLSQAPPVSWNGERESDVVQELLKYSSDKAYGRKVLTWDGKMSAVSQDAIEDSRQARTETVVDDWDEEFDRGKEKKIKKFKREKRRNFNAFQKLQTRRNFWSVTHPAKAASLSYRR

[3] = biological target: SFB-USP10 (human) (UniProt Q14694)

Measured: binding

B1: MYC-DGCR8 (wild-type, full-length) (protein, UniProt Q8WYQ5 1-773)
chain: METDESPSPLPCGPAGEAVMESRARPFQALPREQSPPPPLQTSSGAEVMDVGSGGDGQSELPAEDPFNFYGASLLSKGSFSKGRLLIDPNCSGHSPRTARHAPAVRKFSPDLKLLKDVKISVSFTESCRSKDRKVLYTGAERDVRAECGLLLSPVSGDVHACPFGGSVGDGVGIGGESADKKDEENELDQEKRVEYAVLDELEDFTDNLELDEEGAGGFTAKAIVQRDRVDEEALNFPYEDDFDNDVDALLEEGLCAPKKRRTEEKYGGDSDHPSDGETSVQPMMTKIKTVLKSRGRPPTEPLPDGWIMTFHNSGVPVYLHRESRVVTWSRPYFLGTGSIRKHDPPLSSIPCLHYKKMKDNEEREQSSDLTPSGDVSPVKPLSRSAELEFPLDEPDSMGADPGPPDEKDPLGAEAAPGALGQVKAKVEVCKDESVDLEEFRSYLEKRFDFEQVTVKKFRTWAERRQFNREMKRKQAESERPILPANQKLITLSVQDAPTKKEFVINPNGKSEVCILHEYMQRVLKVRPVYNFFECENPSEPFGASVTIDGVTYGSGTASSKKLAKNKAARATLEILIPDFVKQTSEEKPKDSEELEYFNHISIEDSRVYELTSKAGLLSPYQILHECLKRNHGMGDTSIKFEVVPGKNQKSEYVMACGKHTVRGWCKNKRVGKQLASQKILQLLHPHVKNWGSLLRMYGRESSKMVKQETSDKSVIELQQYAKKNKPNLHILSKLQEEMKRLAEEREETRKKPKMSIVASAQPGGEPLCTVDV
binds: all assays above
